Data: paper PMC7717681, “Biochemical and structural characterisation of a protozoan beta-carbonic anhydrase from Trichomonas vaginalis” (Journal of Enzyme Inhibition and Medicinal Chemistry, 2020)

The chains behind the UniProt entries cited, without tags or fusion partners. Residues count along the entry.
UniProt A2ENQ8, 1-182: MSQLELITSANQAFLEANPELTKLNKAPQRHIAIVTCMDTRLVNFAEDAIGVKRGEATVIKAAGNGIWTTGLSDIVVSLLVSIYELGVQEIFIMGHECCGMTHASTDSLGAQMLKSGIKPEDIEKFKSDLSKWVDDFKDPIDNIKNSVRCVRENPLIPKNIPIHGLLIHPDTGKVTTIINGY

Molecular target: T1, TvaCA1 (Trichomonas vaginalis, UniProt A2ENQ8)
T1 construct: gene TVAG_005270
Assay: biochemical

- Ki: 391 nM
SMILES: CC(=O)Nc1nnc(S(N)(=O)=O)s1 [AAZ, acetazolamide]
